Measured values: the supplement of paper PMC12009310
Counter-ions that a name gives are not always drawn. ± gives the standard deviation of the averaged measurements. The list shows a part of the results. Baselines shift from plate to plate; read single values as rough.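 The cells are a mouse kidney inner medullary collecting duct line, silenced either for the ciliary gene Rpgrip1l or with a non-targeting control siRNA.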

Test system: mIMCD3
Experiment: robust z score of cell number vs plate controls; higher = more cells (less cytotoxic)
Conditions: 10 µM; 48 h; siRNA: siRpgrip1l

| Compound | robust z score of cell number |
| --- | --- |
| Oc1ccc(Nc2nc(-c3ccc(Cl)cc3)cs2)cc1 | -40.6 ± 26 |
| O=c1c(-c2ccc(O)cc2)coc2cc(O)cc(O)c12 [Genistein] | -30.2 ± 23 |
| CC(C)N1Cc2cc(S(C)(=O)=O)ccc2N(CCN2CC=C(c3c[nH]c4cc(F)ccc34)CC2)S1(=O)=O | -28.7 ± 34 |
| CCCC(=O)Nc1ncnc2c1ncn2[C@@H]1O[C@@H]2COP(=O)(O)O[C@H]2[C@H]1OC(=O)CCC [Dibutyryl-cAMP, sodium salt] | -7.09 ± 5 |
| CCCCC/N=c1\ccn(Cc2ccccc2)c2ccccc12 | -259 ± 190 |
| CC1=C(/C=C/C(=C/C=C/C(C)=C/C(=O)O)c2ccc(C)cc2)C(C)(C)CCC1 | -29.2 ± 8.4 |
| COc1cc(OC)c(NC(=O)Nc2cc(C)on2)cc1Cl | -7.55 ± 1.7 |
| Nc1ncnc2n[nH]c(Nc3ccc(F)cc3)c12 | -12.5 ± 11 |
| Cn1cnnc1Sc1c([N+](=O)[O-])ncn1C | -11.8 ± 6.4 |
| COc1ccc(CCN(C)CCCOc2ccc(S(=O)(=O)c3c(C(C)C)c4ccccc4n3C)cc2)cc1OC | -57.4 ± 57 |
| Oc1nc(-c2ccc(C(F)(F)F)cc2)nc2c1CSCC2 | -14.3 ± 9.6 |
| N#Cc1ccccc1OCC(O)CNCCNC(=O)Nc1ccccc1 (stereo not given) | -17.6 ± 18 |
| OCCN(CCO)c1nc(N2CCCCC2)c2nc(N(CCO)CCO)nc(N3CCCCC3)c2n1 [Dipyridamole] | -9.17 ± 2.8 |
| C[C@@H](NCc1cc(Br)cc2[nH]c(=O)c(=O)[nH]c12)P(=O)(O)O | -30.3 ± 35 |
| CCCCCCN(CCCCCC)C(=O)Cc1c(-c2ccc(Cl)cc2)[nH]c2ccc(Cl)cc12 | -88.4 ± 66 |
| CCCCCCCC/C=C\CCCCCCCC(=O)NCc1ccc(O)c(OC)c1 [Olvanil] | -29.9 ± 1.5 |
| CC(C)[C@H](CO)Nc1nc(Nc2cc(N)cc(Cl)c2)c2ncn(C(C)C)c2n1 [Aminopurvalanol A] | -38.2 ± 25 |
| CCOC(=O)[C@H](CCc1ccccc1)N[C@@H](C)C(=O)N1Cc2cc(OC)c(OC)cc2C[C@H]1C(=O)O [Moexipril hydrochloride] | -5.09 ± 3.1 |
| Cc1ccccc1N=Nc1ccc(NC(=O)c2ccnn2C)c(C)c1 | -94.7 ± 67 |
| O=C(Nc1cccc2cccnc12)c1ccc(N2C(=O)[C@@H]3[C@H](C2=O)[C@@H]2C=C[C@H]3C2)cc1 [endo-IWR 1] | -30.8 ± 31 |
| COC(=O)Nc1nc2cc(C(=O)c3cccs3)ccc2[nH]1 [Nocodazole] | -275 ± 190 |
| O=C(O)C(=O)O.[NH-][C@@H]1CCCC[C@H]1[NH-].[Pt+2] [Oxaliplatin] | -23.6 ± 8.4 |
| CC(C(=O)O)c1ccc(-c2ccccc2)c(F)c1 (stereo not given) [Flurbiprofen] | -23.8 ± 17 |
| COc1cccc2c1C(=O)c1c(O)c3c(c(O)c1C2=O)C[C@@](O)(C(=O)CO)C[C@@H]3O[C@H]1C[C@H](N)[C@H](O)[C@H](C)O1 [Doxorubicin hydrochloride] | -41.1 ± 27 |
| O=C1NN(C(=O)Nc2ccc(Br)cc2)[C@@H](c2ccccc2)[C@@H]1c1ccccc1 | -98.9 ± 110 |

Some of these compounds in order of length of the SMILES, ascending.

| Compound | robust z score of cell number |
| --- | --- |
| Cn1cnnc1Sc1c([N+](=O)[O-])ncn1C | -11.8 ± 6.4 |
| CC(C)[C@H](CO)Nc1nc(Nc2cc(N)cc(Cl)c2)c2ncn(C(C)C)c2n1 [Aminopurvalanol A] | -38.2 ± 25 |
| COc1ccc(CCN(C)CCCOc2ccc(S(=O)(=O)c3c(C(C)C)c4ccccc4n3C)cc2)cc1OC | -57.4 ± 57 |
